# Experimental data from publication doi:10.1101/2020.10.21.349050.
# Chains of the proteins cited; added tags and fusions are not shown.
# UniProt P40381, whole entry K242A/K243A/K244A: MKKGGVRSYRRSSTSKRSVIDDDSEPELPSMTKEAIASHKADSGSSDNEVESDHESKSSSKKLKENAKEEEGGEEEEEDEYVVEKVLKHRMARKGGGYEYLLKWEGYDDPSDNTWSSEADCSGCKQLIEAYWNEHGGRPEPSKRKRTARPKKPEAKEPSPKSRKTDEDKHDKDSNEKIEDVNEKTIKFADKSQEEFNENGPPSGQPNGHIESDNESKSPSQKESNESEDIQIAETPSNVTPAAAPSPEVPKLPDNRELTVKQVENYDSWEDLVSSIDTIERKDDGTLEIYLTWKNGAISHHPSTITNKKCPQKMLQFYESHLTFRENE
# Construct, isoform or probe ends are uncertain for at least one entry. For some of these results: No signal at the amounts used counts as a negative. For some of these results: Weaker means in comparison with the reference protein, sequence or condition of that experiment.
# Tests used:
# Test in all cases: EMSA
# [1] = target: GST-Swi6-CD (Schizosaccharomyces pombe) (UniProt P40381)
# [2] = target: GST-Swi6-CSD (Schizosaccharomyces pombe) (UniProt P40381)
# [3] = target: GST-Swi6-CD-Hinge (Schizosaccharomyces pombe) (UniProt P40381)
# [4] = target: GST-Swi6 3K->3A K242A,K243A,K244A (Schizosaccharomyces pombe) (UniProt P40381); conditions: drastically reduced
sequence,measurement,setting,value
ACAAGUGAUAAGAGUAGGUGU [E-For RNA],binding result,[1],binds
same,binding result,[2],no binding
same,binding result,[3],binds
UGGAUUAAGGAGAAGCGGUA [D-For RNA],binding result,[4],binds more weakly
